# “And” between values parts separate entries of the source, which are not always exact repeats. Identical values can stand only once.
# Tests used:
# [1] = Dynamic headspace analysis of line-dried cotton treated with liquid fabric softener; details: ± standard deviation; for Dynamic headspace concentration of the perfumery raw material itself, reference: reference fabric softener with 0.075 mmol of each free volatile; for Dynamic headspace concentration of 2-phenylethanol, profragrance / Dynamic headspace concentration of 2-phenylethyl formate, profragrance / Dynamic headspace concentration of dodecanal, profragrance / Dynamic headspace concentration of octanal, profragrance / Dynamic headspace concentration of 2-methylundecanal, profragrance / Dynamic headspace concentration of cis-3-hexen-1-ol, profragrance / Dynamic headspace concentration of cis-3-hexenyl formate, profragrance / Dynamic headspace concentration of decanal, profragrance / Dynamic headspace concentration of 2-phenoxyethan-1-ol, profragrance / Dynamic headspace concentration of 2-phenoxyethyl formate, profragrance / Dynamic headspace concentration of phenylacetaldehyde, profragrance / Dynamic headspace concentration of octanol, profragrance / Dynamic headspace concentration of octyl formate, profragrance / Dynamic headspace concentration of undecanal, profragrance / Dynamic headspace concentration of 2-phenylpropanal, profragrance: fabric softener
# [2] = Dynamic headspace analysis of line-dried cotton treated with liquid laundry detergent; details: reference liquid laundry detergent with 0.075 mmol of each free volatile, ± standard deviation
structure (smiles),measurement,setting,value
"CCCCCCC(C)O (stereo not drawn) [Compound 2-octanol, 2-octanol, reference compound]","Dynamic headspace concentration of the perfumery raw material itself, reference",[1]; 60 min sample (60-75 min),0.4 ± 0.15 ng/L
same,"Dynamic headspace concentration of the perfumery raw material itself, reference",[1]; 120 min sample (120-135 min),0.36 ± 0.04 ng/L
"CCCCCCCCCC(C)C=O (stereo not drawn) [2-methylundecanal, reference compound]","Dynamic headspace concentration of the perfumery raw material itself, reference",[2]; 60 min sample (60-75 min),6.3 ± 0.1 ng/L and 5.9 ± 0.81 ng/L
same,"Dynamic headspace concentration of the perfumery raw material itself, reference",[2]; 120 min sample (120-135 min),14.9 ± 2.2 ng/L and 7.7 ± 0.9 ng/L
"CCCCCCCC=O [octanal, reference compound]","Dynamic headspace concentration of the perfumery raw material itself, reference",[1]; 60 min sample (60-75 min),9.2 ± 0.5 ng/L and 6.2 ± 0.9 ng/L and 9.5 ± 0.7 ng/L
same,"Dynamic headspace concentration of the perfumery raw material itself, reference",[1]; 120 min sample (120-135 min),8.4 ± 0.7 ng/L and 5.9 ± 0.5 ng/L and 9.0 ± 0.3 ng/L
"O=CCc1ccccc1 [phenylacetaldehyde, reference compound]","Dynamic headspace concentration of the perfumery raw material itself, reference",[1]; 60 min sample (60-75 min),12.1 ± 2.9 ng/L
same,"Dynamic headspace concentration of the perfumery raw material itself, reference",[1]; 120 min sample (120-135 min),14.9 ± 1.6 ng/L
"CCCCCCCCCCCC=COCCc1ccccc1 [Compound 2, (2-(tridec-1-en-1-yloxy)ethyl)benzene]","Dynamic headspace concentration of 2-phenylethanol, profragrance",[1]; 60 min sample (60-75 min),54.8 ± 8.6 ng/L
same,"Dynamic headspace concentration of 2-phenylethyl formate, profragrance",[1]; 60 min sample (60-75 min),187 ± 15.4 ng/L
same,"Dynamic headspace concentration of dodecanal, profragrance",[1]; 60 min sample (60-75 min),448 ± 49.1 ng/L
same,"Dynamic headspace concentration of 2-phenylethanol, profragrance",[1]; 120 min sample (120-135 min),61.7 ± 8.7 ng/L
same,"Dynamic headspace concentration of 2-phenylethyl formate, profragrance",[1]; 120 min sample (120-135 min),174 ± 7.9 ng/L
same,"Dynamic headspace concentration of dodecanal, profragrance",[1]; 120 min sample (120-135 min),479 ± 37.4 ng/L
"CCCCCCCC=COCC [Compound 36, 1-ethoxynon-1-ene, reference compound]","Dynamic headspace concentration of octanal, profragrance",[1]; 60 min sample (60-75 min),12.1 ± 0.9 ng/L
same,"Dynamic headspace concentration of octanal, profragrance",[1]; 120 min sample (120-135 min),10.1 ± 0.7 ng/L
"CC/C=C\CCOC=CC(C)CCCCCCCCC (stereo not drawn) [Compound 27, 1-(((Z)-hex-3-en-1-yl)oxy)-3-methyldodec-1-ene]","Dynamic headspace concentration of 2-methylundecanal, profragrance",[1]; 60 min sample (60-75 min),474 ± 97.5 ng/L
same,"Dynamic headspace concentration of cis-3-hexen-1-ol, profragrance",[1]; 60 min sample (60-75 min),69.4 ± 44.9 ng/L
same,"Dynamic headspace concentration of cis-3-hexenyl formate, profragrance",[1]; 60 min sample (60-75 min),24.4 ± 6.9 ng/L
same,"Dynamic headspace concentration of 2-methylundecanal, profragrance",[1]; 120 min sample (120-135 min),346 ± 128 ng/L
same,"Dynamic headspace concentration of cis-3-hexen-1-ol, profragrance",[1]; 120 min sample (120-135 min),47.5 ± 35.2 ng/L
same,"Dynamic headspace concentration of cis-3-hexenyl formate, profragrance",[1]; 120 min sample (120-135 min),19.5 ± 8.7 ng/L
"CCCCCCCCCC=COCCc1ccccc1 [Compound 9, (2-(undec-1-en-1-yloxy)ethyl)benzene]","Dynamic headspace concentration of 2-phenylethanol, profragrance",[1]; 60 min sample (60-75 min),27.6 ± 3.3 ng/L
same,"Dynamic headspace concentration of 2-phenylethyl formate, profragrance",[1]; 60 min sample (60-75 min),168 ± 17.8 ng/L
same,"Dynamic headspace concentration of decanal, profragrance",[1]; 60 min sample (60-75 min),399 ± 35.5 ng/L
same,"Dynamic headspace concentration of 2-phenylethanol, profragrance",[1]; 120 min sample (120-135 min),24.9 ± 8.2 ng/L
same,"Dynamic headspace concentration of 2-phenylethyl formate, profragrance",[1]; 120 min sample (120-135 min),140 ± 32.9 ng/L
same,"Dynamic headspace concentration of decanal, profragrance",[1]; 120 min sample (120-135 min),346 ± 38.9 ng/L
"CCCCCCCCCC=COCCOc1ccccc1 [Compound 10, (2-(undec-1-en-1-yloxy)ethoxy)benzene]","Dynamic headspace concentration of 2-phenoxyethan-1-ol, profragrance",[1]; 60 min sample (60-75 min),40.1 ± 10 ng/L
same,"Dynamic headspace concentration of 2-phenoxyethyl formate, profragrance",[1]; 60 min sample (60-75 min),113 ± 0.6 ng/L
same,"Dynamic headspace concentration of decanal, profragrance",[1]; 60 min sample (60-75 min),185 ± 3.6 ng/L
same,"Dynamic headspace concentration of 2-phenoxyethan-1-ol, profragrance",[1]; 120 min sample (120-135 min),36.5 ± 3.8 ng/L
same,"Dynamic headspace concentration of 2-phenoxyethyl formate, profragrance",[1]; 120 min sample (120-135 min),100 ± 5.8 ng/L
same,"Dynamic headspace concentration of decanal, profragrance",[1]; 120 min sample (120-135 min),130 ± 3.6 ng/L
"CCCCCCCCCC(C)C=COCCOc1ccccc1 (stereo not drawn) [Compound 26, (2-((3-methyldodec-1-en-1-yl)oxy)ethoxy)benzene]","Dynamic headspace concentration of 2-methylundecanal, profragrance",[1]; 60 min sample (60-75 min),355 ± 49.1 ng/L
same,"Dynamic headspace concentration of 2-phenoxyethan-1-ol, profragrance",[1]; 60 min sample (60-75 min),28 ± 4.6 ng/L
same,"Dynamic headspace concentration of 2-phenoxyethyl formate, profragrance",[1]; 60 min sample (60-75 min),209 ± 26.8 ng/L
same,"Dynamic headspace concentration of 2-methylundecanal, profragrance",[1]; 120 min sample (120-135 min),365 ± 91.3 ng/L
same,"Dynamic headspace concentration of 2-phenoxyethan-1-ol, profragrance",[1]; 120 min sample (120-135 min),37.2 ± 6.2 ng/L
same,"Dynamic headspace concentration of 2-phenoxyethyl formate, profragrance",[1]; 120 min sample (120-135 min),252 ± 18.1 ng/L
"CCCCCCCCCC=COCC [Compound 37, 1-ethoxyundec-1-ene, reference compound]","Dynamic headspace concentration of decanal, profragrance",[1]; 60 min sample (60-75 min),12.8 ± 9.8 ng/L
same,"Dynamic headspace concentration of decanal, profragrance",[1]; 120 min sample (120-135 min),20.0 ± 3.0 ng/L
"C(=COCCc1ccccc1)Cc1ccccc1 [Compound 4, ((3-phenethoxyallyl)benzene)]","Dynamic headspace concentration of 2-phenylethanol, profragrance",[1]; 60 min sample (60-75 min),25.9 ± 2.9 ng/L
same,"Dynamic headspace concentration of 2-phenylethyl formate, profragrance",[1]; 60 min sample (60-75 min),47.8 ± 9.6 ng/L
same,"Dynamic headspace concentration of phenylacetaldehyde, profragrance",[1]; 60 min sample (60-75 min),47.5 ± 4.8 ng/L
same,"Dynamic headspace concentration of 2-phenylethanol, profragrance",[1]; 120 min sample (120-135 min),32.9 ± 4.82 ng/L
same,"Dynamic headspace concentration of 2-phenylethyl formate, profragrance",[1]; 120 min sample (120-135 min),49.0 ± 11.0 ng/L
same,"Dynamic headspace concentration of phenylacetaldehyde, profragrance",[1]; 120 min sample (120-135 min),48.0 ± 7.6 ng/L
"CCCCCCCCCCC=COCCCCCCCC [Compound 7, 1-(octyloxy)dodec-1-ene]","Dynamic headspace concentration of octanol, profragrance",[1]; 60 min sample (60-75 min),201 ± 30.2 ng/L
same,"Dynamic headspace concentration of octyl formate, profragrance",[1]; 60 min sample (60-75 min),37.2 ± 1.2 ng/L
same,"Dynamic headspace concentration of undecanal, profragrance",[1]; 60 min sample (60-75 min),185 ± 18.4 ng/L
same,"Dynamic headspace concentration of octanol, profragrance",[1]; 120 min sample (120-135 min),248 ± 41.2 ng/L
same,"Dynamic headspace concentration of octyl formate, profragrance",[1]; 120 min sample (120-135 min),31.2 ± 4.3 ng/L
same,"Dynamic headspace concentration of undecanal, profragrance",[1]; 120 min sample (120-135 min),203 ± 34.2 ng/L
"CC(C=COCCc1ccccc1)c1ccccc1 (stereo not drawn) [Compound 5, (4-phenethoxybut-3-en-2-yl)benzene]","Dynamic headspace concentration of 2-phenylethanol, profragrance",[1]; 60 min sample (60-75 min),29.8 ± 9.2 ng/L
same,"Dynamic headspace concentration of 2-phenylethyl formate, profragrance",[1]; 60 min sample (60-75 min),135 ± 59.8 ng/L
same,"Dynamic headspace concentration of 2-phenylpropanal, profragrance",[1]; 60 min sample (60-75 min),565 ± 199 ng/L
same,"Dynamic headspace concentration of 2-phenylethanol, profragrance",[1]; 120 min sample (120-135 min),26.5 ± 10.1 ng/L
same,"Dynamic headspace concentration of 2-phenylethyl formate, profragrance",[1]; 120 min sample (120-135 min),97.4 ± 50.0 ng/L
same,"Dynamic headspace concentration of 2-phenylpropanal, profragrance",[1]; 120 min sample (120-135 min),348 ± 103 ng/L
